The experiment deals with CD2F1 mice, nontumored, toxicity/survival. The experiment can be described thus: NCI In Vivo Anticancer Drug Screen. Data for tumor model Nontumored Animals (Toxicity Test) in CD2F1 (CDF1) mice.
[1] abbreviates: dose: 1.0 mg/kg/injection, schedule: Q01DX001 (ip), vehicle: DMSO.
The mark [2] stands for this setting: dose: 10.0 mg/kg/injection, schedule: Q01DX001 (ip), vehicle: DMSO.
The mark [3] stands for this setting: dose: 100.0 mg/kg/injection, schedule: Q01DX001 (ip), vehicle: DMSO.

Shown are survivors of the treated group in tumour-free mice. Counts of survivors are from the toxicity check (mostly the fifth day) where no day follows; animals may have died later. Schedules are NCI's codes, read here as Q, the interval in days (D) or hours (H), X, the number of doses.

For the molecule `CCn1cnc2c(=S)nc[nH]c21`, the survivor count by setting is: (dose: 9.4 mg/kg/injection, schedule: Q03HX024 (ip), vehicle: saline) 8 of 8; (dose: 15.0 mg/kg/injection, schedule: Q01DX009 (ip), vehicle: saline) 8 of 8; (dose: 15.0 mg/kg/injection, schedule: Q03HX008 (ip), vehicle: saline) 8 of 8; (dose: 18.8 mg/kg/injection, schedule: Q03HX016 (ip), vehicle: saline) 8 of 8; (dose: 18.8 mg/kg/injection, schedule: Q03HX024 (ip), vehicle: saline) 8 of 8; (dose: 30.0 mg/kg/injection, schedule: Q01DX009 (ip), vehicle: saline) 8 of 8. The survivor count (dose: 30.0 mg/kg/injection, schedule: Q03HX008 (ip), vehicle: saline) is given as 8 of 8; the survivor count (dose: 37.5 mg/kg/injection, schedule: Q03HX016 (ip), vehicle: saline) is given as 8 of 8; the survivor count (dose: 37.5 mg/kg/injection, schedule: Q03HX024 (ip), vehicle: saline) was 8 of 8; the survivor count (dose: 56.3 mg/kg/injection, schedule: Q03HX024 (ip), vehicle: saline) was 8 of 8; the survivor count (dose: 60.0 mg/kg/injection, schedule: Q01DX009 (ip), vehicle: saline) was 8 of 8; the survivor count (dose: 60.0 mg/kg/injection, schedule: Q03HX008 (ip), vehicle: saline) is listed as 8 of 8. In addition, the survivor count is 8 of 8 (dose: 75.0 mg/kg/injection, schedule: Q03HX016 (ip), vehicle: saline); 8 of 8 (dose: 75.0 mg/kg/injection, schedule: Q04DX003 (ip), vehicle: saline); 8 of 8 (dose: 90.0 mg/kg/injection, schedule: Q03HX008 (ip), vehicle: saline); 8 of 8 (dose: 120.0 mg/kg/injection, schedule: Q01DX009 (ip), vehicle: saline); 8 of 8 (dose: 150.0 mg/kg/injection, schedule: Q01DX001 (ip), vehicle: saline); 8 of 8 (dose: 150.0 mg/kg/injection, schedule: Q04DX003 (ip), vehicle: saline). For the same molecule, the survivor count is 8 of 8 (dose: 150.0 mg/kg/injection, schedule: Q08DX002 (ip), vehicle: saline); 5 of 8 (dose: 240.0 mg/kg/injection, schedule: Q01DX009 (ip), vehicle: saline); 7 of 8 (dose: 300.0 mg/kg/injection, schedule: Q01DX001 (ip), vehicle: saline); 8 of 8 (dose: 300.0 mg/kg/injection, schedule: Q04DX003 (ip), vehicle: saline); 7 of 8 (dose: 300.0 mg/kg/injection, schedule: Q08DX002 (ip), vehicle: saline); 3 of 8 (dose: 600.0 mg/kg/injection, schedule: Q01DX001 (ip), vehicle: saline). The survivor count (dose: 600.0 mg/kg/injection, schedule: Q08DX002 (ip), vehicle: saline) was 1 of 8.

In the case of `CC(=O)Nc1ccc(-c2c(NCCO)ncc3ccccc23)cc1`, the survivor count under setting [1] is reported as 2 of 2, the survivor count under setting [2] was 2 of 2 and the survivor count under setting [3] was 2 of 2.

For `Cc1c(C)c2c(c(C)c1O)CCC(C)(CCCC(C)CCCC(C)CCCC(C)C)O2` (centres undefined), the survivor count runs as follows: (dose: 170.0 mg/kg/injection, schedule: Q01DX001 (ip), vehicle: olive oil, sesame oil, peanut oil) 6 of 6; (dose: 340.0 mg/kg/injection, schedule: Q01DX001 (ip), vehicle: olive oil, sesame oil, peanut oil) 6 of 6.

In the case of `O=C(CCl)Nc1ccc(-c2c(NC(=O)CCl)ncc3ccccc23)cc1`, the survivor count is, setting by setting: under setting [1], 2 of 2; (dose: 1.0 mg/kg/injection, schedule: Q01DX001 (ip), vehicle: olive oil, sesame oil, peanut oil) 2 of 2; under setting [2], 2 of 2; (dose: 10.0 mg/kg/injection, schedule: Q01DX001 (ip), vehicle: olive oil, sesame oil, peanut oil) 2 of 2; under setting [3], 2 of 2; (dose: 100.0 mg/kg/injection, schedule: Q01DX001 (ip), vehicle: olive oil, sesame oil, peanut oil) 2 of 2.

`COc1ccc2c(c1O)-c1cccc3c1[C@@H](C2)N(CCCl)CC3`: the survivor count runs as follows: (dose: 1.0 mg/kg/injection, schedule: Q01DX001 (ip), vehicle: other) 2 of 2; (dose: 10.0 mg/kg/injection, schedule: Q01DX001 (ip), vehicle: other) 2 of 2; (dose: 100.0 mg/kg/injection, schedule: Q01DX001 (ip), vehicle: other) 2 of 2.

The values above are taken from PubChem BioAssay AID188 (DTP/NCI, 2004).
